Results deposited as PubChem BioAssay AID1224826 (NIAID, 2016).
The whole screen tested about 17,000 reagents; below is a part drawn at random. About 1,110 of them (6.6%) were called active. 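Active means lowered or raised reporter signal; replicate intensities are raw and not normalised per plate.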

Assay: 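Genes that change LPS-induced Tnf promoter activity in mouse macrophages when knocked down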 (primary screen)
Cells: RAW264.7 G9 macrophages from mouse bearing reporters for p65 (GFP) and the Tnf promoter (mCherry)
Reagents: siRNA pool against mouse genes, 100 nM
Timing: 16 h of LPS stimulation, after 2 days of siRNA transfection
Challenge: bacterial lipopolysaccharide (Salmonella minnesota R595), 10 ng/ml
Read-out: 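Imaged Tnf reporter mCherry in nuclei, minus background, normalised per plate to the median and expressed as robust z-scores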
Direction: Tnf reporter robust z-score: higher = stronger Tnf promoter reporter signal after LPS; Tnf reporter intensity: higher = stronger Tnf promoter reporter signal
Active means: 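a well counts as active at a score of -1.3 or below (Tlr4 knock-down control median) or above 3 (raised signal); controls and wells holding fewer than 50 cells are excluded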
Calls: active = Tnf reporter clearly lowered or raised; inactive = no clear change in Tnf reporter

| gene symbol | Tnf reporter robust z-score | fewer than 50 cells in well | Tnf reporter intensity, replicate 1 | Tnf reporter intensity, replicate 2 | outcome |
| --- | --- | --- | --- | --- | --- |
| Or2y3 | 0.32 | enough cells in well | 226 | 116 | inactive |
| H1f2 | -0.47 | enough cells in well | 210 | 149 | inactive |
| Noc4l | -0.78 | enough cells in well | 126 | 162 | inactive |
| Qser1 | -0.5 | enough cells in well | 164 | 94.5 | inactive |
| Rps24 | – | fewer than 50 cells per well; well left out of calls | 52.3 | 47.9 | inactive |
| Otop2 | 0.74 | enough cells in well | 159 | 190 | inactive |
| AI931714 | 0.62 | enough cells in well | 319 | 161 | inactive |
| Ofd1 | 1.18 | enough cells in well | 287 | 294 | inactive |
| Manea | -0.7 | enough cells in well | 153 | 50.4 | inactive |
| Fzd9 | -0.06 | enough cells in well | 185 | 334 | inactive |
| Atp5f1c | 0.2 | enough cells in well | 146 | 141 | inactive |
| Calm4 | -1.82 | enough cells in well | 54.6 | 64.7 | active |
| Phf5a | – | fewer than 50 cells per well; well left out of calls | 48.1 | 47.7 | inactive |
| Nudcd1 | 1.51 | enough cells in well | 264 | 118 | inactive |
| Tmed2 | 0.7 | enough cells in well | 345 | 52.5 | inactive |
| Rnf25 | 0.47 | enough cells in well | 116 | 180 | inactive |
| Cyth1 | 0.07 | enough cells in well | 241 | 206 | inactive |
| Stk-ps2 | -1.04 | enough cells in well | 121 | 42.4 | inactive |
| Mx1 | -1.11 | enough cells in well | 211 | 90.7 | inactive |
| Klhdc7a | 0.05 | enough cells in well | 165 | 175 | inactive |
| Zfp316 | -0.4 | enough cells in well | 146 | 63.6 | inactive |
| Ccnh | -0.66 | enough cells in well | 211 | 143 | inactive |
| Or56a5 | 1.06 | enough cells in well | 131 | 160 | inactive |
| Plxnc1 | -0.77 | enough cells in well | 184 | 141 | inactive |
| Adamtsl4 | -0.87 | enough cells in well | 91.4 | 56.9 | inactive |
| Bsnd | -0.77 | enough cells in well | 97.1 | 134 | inactive |
| 6030443O07RIK | 0.53 | enough cells in well | 191 | 189 | inactive |
| L3mbtl3 | 2.97 | enough cells in well | 392 | 258 | inactive |
| Kdf1 | -0.64 | enough cells in well | 131 | 81.1 | inactive |
| Ubl7 | – | fewer than 50 cells per well; well left out of calls | 91.4 | 29.6 | inactive |
| Rfwd3 | 0.16 | enough cells in well | 233 | 201 | inactive |
| Or4f53 | 2.1 | enough cells in well | 289 | 220 | inactive |
| Nr1i2 | 0.91 | enough cells in well | 273 | 270 | inactive |
| Dusp3 | 0.12 | enough cells in well | 210 | 246 | inactive |
| 4933427D06Rik | 1.36 | enough cells in well | 231 | 240 | inactive |
| Ednra | -0.4 | enough cells in well | 163 | 296 | inactive |
| Pomc | -0.75 | enough cells in well | 191 | 137 | inactive |
| Mfap1a | -1.76 | enough cells in well | 81.5 | 78.6 | active |
| Cct8l1 | 3.28 | enough cells in well | 527 | 339 | active |
| Stambp | 1.32 | enough cells in well | 210 | 82.9 | inactive |
| Awat2 | 0.2 | enough cells in well | 163 | 193 | inactive |
| Mkks | 0.77 | enough cells in well | 336 | 256 | inactive |
| Ankrd40 | -0.64 | enough cells in well | 195 | 115 | inactive |
| Nup98 | – | fewer than 50 cells per well; well left out of calls | 47.7 | 40.5 | inactive |
| Zfp384 | -0.29 | enough cells in well | 102 | 146 | inactive |
| Fam3c | -0.76 | enough cells in well | 168 | 97 | inactive |
| Hoxd12 | 0.29 | enough cells in well | 256 | 211 | inactive |

A few values from the list:
Entry for Stambp in “Tnf reporter robust z-score”: 1.32
Ofd1, Tnf reporter intensity, replicate 1 = 287
Kdf1, outcome → inactive
For “fewer than 50 cells in well”, Stk-ps2 is entered as enough cells in well
Under “Tnf reporter intensity, replicate 1”, Fzd9 has 185
Under “Tnf reporter robust z-score”, Noc4l is entered as -0.78

The listing continues:
| gene symbol | Tnf reporter robust z-score | fewer than 50 cells in well | Tnf reporter intensity, replicate 1 | Tnf reporter intensity, replicate 2 | outcome |
| --- | --- | --- | --- | --- | --- |
| Abhd1 | 0.58 | enough cells in well | 239 | 231 | inactive |
| Sptlc2 | 0.28 | enough cells in well | 100 | 117 | inactive |
| Polr3b | 0.51 | enough cells in well | 97.7 | 147 | inactive |
| Nol6 | 2.21 | enough cells in well | 361 | 236 | inactive |
| Pcdh9 | 0.43 | enough cells in well | 280 | 204 | inactive |
| Tmem179 | 1.09 | enough cells in well | 302 | 238 | inactive |
| Or52e5 | -0.49 | enough cells in well | 72.2 | 111 | inactive |
| Ppp1r21 | -0.01 | enough cells in well | 286 | 70.3 | inactive |
| Pkd2l2 | 0.16 | enough cells in well | 285 | 179 | inactive |
| Arel1 | 2.06 | enough cells in well | 348 | 157 | inactive |
| Rrh | -0.49 | enough cells in well | 221 | 75.2 | inactive |
| Arhgdib | -1.35 | enough cells in well | 81.7 | 103 | active |
| Hoxd1 | -0.94 | enough cells in well | 176 | 107 | inactive |
| Or52d3 | -1.59 | enough cells in well | 48 | 69.8 | active |
| Fastk | 0.59 | enough cells in well | 243 | 182 | inactive |
| Bcl7b | -0.85 | enough cells in well | 126 | 83.8 | inactive |
| Naa10 | -1.04 | enough cells in well | 121 | 96.5 | inactive |
| Dhx34 | -1.04 | enough cells in well | 134 | 95.1 | inactive |
| Eif3e | -1.38 | enough cells in well | 122 | 122 | active |
| Mzf1 | -0.13 | enough cells in well | 243 | 192 | inactive |
| Kcnj14 | -1.03 | enough cells in well | 156 | 65.1 | inactive |
| Mutyh | 0.54 | enough cells in well | 341 | 218 | inactive |
| Siglecl2 | – | fewer than 50 cells per well; well left out of calls | 76.1 | 35.1 | inactive |
| Itsn2 | -0.31 | enough cells in well | 277 | 169 | inactive |
| Smarcd2 | -0.09 | enough cells in well | 264 | 214 | inactive |
| Tbc1d20 | -0.42 | enough cells in well | 133 | 64.6 | inactive |
| Ftdc2 | -1.48 | enough cells in well | 98.3 | 43 | active |
| Lrrc31 | -0.6 | enough cells in well | 150 | 90.9 | inactive |
